Source: doi:10.1101/844365
No constants are given. Whether binding was seen depends on the method and setting. Some entries that bind do so weakly or less than the wild type. Sequences can lack the tags named with a protein.

Sequences of proteins named here, by UniProt entry; tags and fusion partners are left off.
UniProt O80339: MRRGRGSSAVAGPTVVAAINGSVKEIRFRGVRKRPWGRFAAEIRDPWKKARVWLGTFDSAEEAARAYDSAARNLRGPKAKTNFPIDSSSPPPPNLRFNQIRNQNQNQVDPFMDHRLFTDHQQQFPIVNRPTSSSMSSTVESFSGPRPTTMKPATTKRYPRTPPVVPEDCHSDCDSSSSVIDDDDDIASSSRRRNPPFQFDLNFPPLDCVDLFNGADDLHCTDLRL
UniProt Q9C5I3: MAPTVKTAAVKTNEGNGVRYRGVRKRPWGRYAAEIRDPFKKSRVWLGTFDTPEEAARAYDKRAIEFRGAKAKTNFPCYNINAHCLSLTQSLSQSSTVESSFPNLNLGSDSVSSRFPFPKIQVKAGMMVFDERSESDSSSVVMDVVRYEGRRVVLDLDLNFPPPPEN
UniProt O80340: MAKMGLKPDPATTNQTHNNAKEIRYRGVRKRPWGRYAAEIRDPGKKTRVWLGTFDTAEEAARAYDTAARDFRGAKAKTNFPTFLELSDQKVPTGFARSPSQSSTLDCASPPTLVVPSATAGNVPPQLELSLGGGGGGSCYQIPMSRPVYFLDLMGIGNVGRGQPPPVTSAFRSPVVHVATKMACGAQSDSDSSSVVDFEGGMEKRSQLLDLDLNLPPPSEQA

Biological target: T1, AtTPL (TOPLESS), GAL4 binding domain fusion (Arabidopsis thaliana) (UniProt Q94AI7)
T1 sequence: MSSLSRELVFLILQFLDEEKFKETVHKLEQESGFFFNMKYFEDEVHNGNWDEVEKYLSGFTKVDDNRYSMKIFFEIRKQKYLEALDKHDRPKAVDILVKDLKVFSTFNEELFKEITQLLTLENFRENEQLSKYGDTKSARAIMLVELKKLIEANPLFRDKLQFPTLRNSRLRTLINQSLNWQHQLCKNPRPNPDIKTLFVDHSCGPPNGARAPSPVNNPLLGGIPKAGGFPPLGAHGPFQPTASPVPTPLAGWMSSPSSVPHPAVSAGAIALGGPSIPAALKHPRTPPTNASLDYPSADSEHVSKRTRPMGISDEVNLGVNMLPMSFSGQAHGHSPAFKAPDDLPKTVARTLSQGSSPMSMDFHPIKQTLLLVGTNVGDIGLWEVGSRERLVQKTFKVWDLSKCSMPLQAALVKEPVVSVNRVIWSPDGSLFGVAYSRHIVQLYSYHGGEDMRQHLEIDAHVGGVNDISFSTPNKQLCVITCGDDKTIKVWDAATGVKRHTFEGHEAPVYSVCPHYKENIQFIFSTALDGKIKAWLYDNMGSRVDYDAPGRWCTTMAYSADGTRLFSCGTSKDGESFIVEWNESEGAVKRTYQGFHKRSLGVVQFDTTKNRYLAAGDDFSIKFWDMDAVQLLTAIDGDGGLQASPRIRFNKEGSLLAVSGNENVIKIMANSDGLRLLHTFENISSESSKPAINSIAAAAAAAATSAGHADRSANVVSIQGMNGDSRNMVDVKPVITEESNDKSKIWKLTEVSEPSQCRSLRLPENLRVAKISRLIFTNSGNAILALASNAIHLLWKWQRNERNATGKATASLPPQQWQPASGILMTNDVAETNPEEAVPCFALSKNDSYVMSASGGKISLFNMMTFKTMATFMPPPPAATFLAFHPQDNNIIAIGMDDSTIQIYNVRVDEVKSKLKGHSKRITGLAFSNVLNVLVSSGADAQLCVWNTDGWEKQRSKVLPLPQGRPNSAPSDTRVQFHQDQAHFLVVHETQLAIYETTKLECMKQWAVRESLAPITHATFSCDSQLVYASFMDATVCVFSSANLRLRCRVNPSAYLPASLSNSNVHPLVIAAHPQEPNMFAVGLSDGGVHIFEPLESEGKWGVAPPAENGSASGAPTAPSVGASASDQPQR
Test: two-hybrid

Substance	binding
ERF3, GAL4 activation domain fusion (from UniProt O80339 1-225)	binds
ERF11, GAL4 activation domain fusion (from UniProt Q9C5I3 1-166)	binds
ERF4, GAL4 activation domain fusion (from UniProt O80340 1-222)	binds
